{"source": "PubChem BioAssay AID602196 – INSERM | 2012", "assay": "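Knock-downs that protect lung cancer cells from cisplatin or sensitise them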", "cell system": "human A549 lung cancer cells", "reagents": "siRNA pair against human genes", "duration": "48 h transfection before cisplatin; time from cisplatin to read-out not stated", "treatment": "cisplatin at a dose killing half of control-siRNA cells; exact dose and duration not given", "measurement": "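Shift in cisplatin death relative to control siRNA, from -50 (all cells die) to +50 (no cells die); siRNAs harmful on their own scored 0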", "reading the numbers": "two-siRNA summed score (-2 to +2): higher = both siRNAs protect from cisplatin killing; -2 means both sensitise; mean protection from cisplatin (shift in death): higher = protection from cisplatin killing", "hit rule": "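siRNAs harmful alone (LDH or WST-1) get 0; others get +1 for less and -1 for more cisplatin killing; genes are active when the two siRNAs give the same sign, summing to ±2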", "calls": "active = both siRNAs shift cisplatin killing the same way; inactive = no consistent shift, or siRNA harmful alone", "note": "This is a random part of about 23,000 reagents tested. 455 of them (2%) were called active. 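Active includes both protection and sensitisation; some change values fall well beyond the stated -50 to +50 range.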 Further read-outs or replicates are left out here. Not given: the amount of reagent."}
{"gene knocked down":"LIMCH1 (LIM and calponin homology domains 1)","PubChem SID":"SID131511057","two-siRNA summed score (-2 to +2)":0,"mean protection from cisplatin (shift in death) (%)":3.9,"Outcome":"inactive"}
{"gene knocked down":"HAPLN4 (hyaluronan and proteoglycan link protein 4)","PubChem SID":"SID131504264","two-siRNA summed score (-2 to +2)":0,"mean protection from cisplatin (shift in death) (%)":-5.9,"Outcome":"inactive"}
{"gene knocked down":"PDLIM3 (PDZ and LIM domain 3)","PubChem SID":"SID131511609","two-siRNA summed score (-2 to +2)":0,"mean protection from cisplatin (shift in death) (%)":4.5,"Outcome":"inactive"}
{"gene knocked down":"SDHC (succinate dehydrogenase complex subunit C)","PubChem SID":"SID131511288","two-siRNA summed score (-2 to +2)":0,"mean protection from cisplatin (shift in death) (%)":4.2,"Outcome":"inactive"}
{"gene knocked down":"DGAT2L6 (diacylglycerol O-acyltransferase 2 like 6)","PubChem SID":"SID131520073","two-siRNA summed score (-2 to +2)":1,"mean protection from cisplatin (shift in death) (%)":8.6,"Outcome":"inactive"}
{"gene knocked down":"BRAF (B-Raf proto-oncogene, serine/threonine kinase)","PubChem SID":"SID131512962","two-siRNA summed score (-2 to +2)":0,"mean protection from cisplatin (shift in death) (%)":6,"Outcome":"inactive"}
{"gene knocked down":"EVI5L (ecotropic viral integration site 5 like)","PubChem SID":"SID131508585","two-siRNA summed score (-2 to +2)":0,"mean protection from cisplatin (shift in death) (%)":1.2,"Outcome":"inactive"}
{"gene knocked down":"PPHLN1 (periphilin 1)","PubChem SID":"SID131521695","two-siRNA summed score (-2 to +2)":1,"mean protection from cisplatin (shift in death) (%)":14.5,"Outcome":"inactive"}
{"gene knocked down":"LOC133790","PubChem SID":"SID131522868","two-siRNA summed score (-2 to +2)":1,"mean protection from cisplatin (shift in death) (%)":27.9,"Outcome":"inactive"}
{"gene knocked down":"PAX1 (paired box 1)","PubChem SID":"SID131503141","two-siRNA summed score (-2 to +2)":0,"mean protection from cisplatin (shift in death) (%)":-13,"Outcome":"inactive"}
{"gene knocked down":"EIF1AD","PubChem SID":"SID131516114","two-siRNA summed score (-2 to +2)":0,"mean protection from cisplatin (shift in death) (%)":10.3,"Outcome":"inactive"}
{"gene knocked down":"IFNWP2 (interferon omega 1 pseudogene 2)","PubChem SID":"SID131508204","two-siRNA summed score (-2 to +2)":0,"mean protection from cisplatin (shift in death) (%)":0.8,"Outcome":"inactive"}
{"gene knocked down":"UHRF2 (ubiquitin like with PHD and ring finger domains 2)","PubChem SID":"SID131518236","two-siRNA summed score (-2 to +2)":0,"mean protection from cisplatin (shift in death) (%)":17.4,"Outcome":"inactive"}
{"gene knocked down":"ZCRB1 (zinc finger CCHC-type and RNA binding motif containing 1)","PubChem SID":"SID131512644","two-siRNA summed score (-2 to +2)":0,"mean protection from cisplatin (shift in death) (%)":5.7,"Outcome":"inactive"}
{"gene knocked down":"CENPK (centromere protein K)","PubChem SID":"SID131511562","two-siRNA summed score (-2 to +2)":0,"mean protection from cisplatin (shift in death) (%)":4.5,"Outcome":"inactive"}
{"gene knocked down":"LOC440825","PubChem SID":"SID131518502","two-siRNA summed score (-2 to +2)":0,"mean protection from cisplatin (shift in death) (%)":20.6,"Outcome":"inactive"}
{"gene knocked down":"LOC440037","PubChem SID":"SID131502267","two-siRNA summed score (-2 to +2)":-1,"mean protection from cisplatin (shift in death) (%)":-3.9,"Outcome":"inactive"}
{"gene knocked down":"KAT8 (lysine acetyltransferase 8)","PubChem SID":"SID131516284","two-siRNA summed score (-2 to +2)":0,"mean protection from cisplatin (shift in death) (%)":10.6,"Outcome":"inactive"}
{"gene knocked down":"KRT16 (keratin 16)","PubChem SID":"SID131502214","two-siRNA summed score (-2 to +2)":-1,"mean protection from cisplatin (shift in death) (%)":-4.3,"Outcome":"inactive"}
{"gene knocked down":"PRKAA2 (protein kinase AMP-activated catalytic subunit alpha 2)","PubChem SID":"SID131520510","two-siRNA summed score (-2 to +2)":1,"mean protection from cisplatin (shift in death) (%)":10.1,"Outcome":"inactive"}
{"gene knocked down":"SMIM7 (small integral membrane protein 7)","PubChem SID":"SID131518496","two-siRNA summed score (-2 to +2)":0,"mean protection from cisplatin (shift in death) (%)":20.5,"Outcome":"inactive"}
